Results from patent US20050266509A1, “Interaction of NMDA receptor with protein tyrosine phosphatase” (AGY Therapeutics, Inc., priority 2003, published 2005).
Results are given in words; binding and its absence hold for the method and conditions named. Binding seen in cells or lysates may run through a third protein. Some results given as binding are weak or reduced against the parent protein; the word gives no strength.

Chains of the proteins cited; added tags and fusions are not shown. Residues count along the entry.
UniProt Q13224, residues 27-1484: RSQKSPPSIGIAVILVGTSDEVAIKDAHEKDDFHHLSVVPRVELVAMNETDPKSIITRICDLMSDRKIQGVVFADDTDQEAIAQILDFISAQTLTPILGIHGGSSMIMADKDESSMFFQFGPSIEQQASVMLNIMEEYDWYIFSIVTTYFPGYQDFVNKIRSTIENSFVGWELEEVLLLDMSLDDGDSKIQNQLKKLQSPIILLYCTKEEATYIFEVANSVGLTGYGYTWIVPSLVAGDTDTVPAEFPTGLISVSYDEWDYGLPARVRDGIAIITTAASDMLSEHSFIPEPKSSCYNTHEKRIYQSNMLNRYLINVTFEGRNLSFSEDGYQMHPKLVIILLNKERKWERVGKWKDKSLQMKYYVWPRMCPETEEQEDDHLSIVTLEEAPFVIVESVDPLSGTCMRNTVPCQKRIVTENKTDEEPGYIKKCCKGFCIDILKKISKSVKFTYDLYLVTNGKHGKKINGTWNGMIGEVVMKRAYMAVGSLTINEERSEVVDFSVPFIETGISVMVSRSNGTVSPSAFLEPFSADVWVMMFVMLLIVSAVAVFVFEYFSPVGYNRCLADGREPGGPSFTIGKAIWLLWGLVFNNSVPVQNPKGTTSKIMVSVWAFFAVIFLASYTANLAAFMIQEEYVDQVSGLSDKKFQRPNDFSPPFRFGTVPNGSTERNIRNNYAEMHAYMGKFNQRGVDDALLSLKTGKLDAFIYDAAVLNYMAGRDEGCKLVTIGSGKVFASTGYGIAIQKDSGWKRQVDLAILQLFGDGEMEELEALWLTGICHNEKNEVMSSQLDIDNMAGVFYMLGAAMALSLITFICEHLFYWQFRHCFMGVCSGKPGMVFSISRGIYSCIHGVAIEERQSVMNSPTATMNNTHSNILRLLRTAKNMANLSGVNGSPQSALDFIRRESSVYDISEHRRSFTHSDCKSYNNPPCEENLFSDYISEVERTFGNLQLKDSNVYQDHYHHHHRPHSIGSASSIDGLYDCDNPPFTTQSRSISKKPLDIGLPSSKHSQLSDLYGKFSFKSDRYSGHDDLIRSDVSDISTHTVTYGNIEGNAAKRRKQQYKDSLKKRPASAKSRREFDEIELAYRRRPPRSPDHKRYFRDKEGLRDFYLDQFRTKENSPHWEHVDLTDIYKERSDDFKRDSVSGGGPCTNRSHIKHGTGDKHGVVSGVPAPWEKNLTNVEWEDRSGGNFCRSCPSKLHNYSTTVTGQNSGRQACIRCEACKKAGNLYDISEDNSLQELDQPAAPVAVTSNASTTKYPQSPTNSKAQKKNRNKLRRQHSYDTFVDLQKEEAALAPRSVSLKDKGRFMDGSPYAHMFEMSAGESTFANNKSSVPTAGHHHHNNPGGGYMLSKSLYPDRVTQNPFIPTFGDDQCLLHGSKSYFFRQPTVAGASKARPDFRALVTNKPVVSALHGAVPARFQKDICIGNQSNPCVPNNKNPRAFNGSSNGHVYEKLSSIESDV
UniProt P29074: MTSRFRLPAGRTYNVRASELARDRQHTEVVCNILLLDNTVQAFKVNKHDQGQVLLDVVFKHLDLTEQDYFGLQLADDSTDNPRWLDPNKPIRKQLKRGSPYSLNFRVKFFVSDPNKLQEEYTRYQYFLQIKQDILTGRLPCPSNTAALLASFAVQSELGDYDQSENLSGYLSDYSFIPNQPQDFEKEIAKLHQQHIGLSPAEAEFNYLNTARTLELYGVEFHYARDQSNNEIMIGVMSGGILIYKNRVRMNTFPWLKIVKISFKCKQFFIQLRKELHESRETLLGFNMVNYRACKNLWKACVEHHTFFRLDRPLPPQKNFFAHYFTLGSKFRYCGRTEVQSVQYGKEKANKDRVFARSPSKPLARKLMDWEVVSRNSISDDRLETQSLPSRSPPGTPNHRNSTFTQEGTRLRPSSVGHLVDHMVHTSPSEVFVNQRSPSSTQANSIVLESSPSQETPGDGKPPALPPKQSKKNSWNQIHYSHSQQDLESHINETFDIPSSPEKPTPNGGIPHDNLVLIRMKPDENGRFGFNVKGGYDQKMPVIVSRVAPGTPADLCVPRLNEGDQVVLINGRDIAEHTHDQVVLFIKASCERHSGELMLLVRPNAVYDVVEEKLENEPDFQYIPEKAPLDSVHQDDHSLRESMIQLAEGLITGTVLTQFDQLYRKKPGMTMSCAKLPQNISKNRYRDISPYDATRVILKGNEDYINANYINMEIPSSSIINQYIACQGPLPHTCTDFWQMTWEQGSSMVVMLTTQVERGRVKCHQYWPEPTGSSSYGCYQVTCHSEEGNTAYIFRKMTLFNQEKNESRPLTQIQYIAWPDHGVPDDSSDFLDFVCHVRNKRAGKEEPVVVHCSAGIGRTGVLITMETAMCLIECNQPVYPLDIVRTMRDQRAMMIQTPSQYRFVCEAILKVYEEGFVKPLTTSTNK

Tests used:
[1] = target: NR2A, full length clone (NMDA receptor subunit) (UniProt Q12879); experiment: co-immunoprecipitation from lysates of co-transfected 293 cells, Western blot
[2] = target: NR2B, full length clone (NMDA receptor subunit) (UniProt Q13224); experiment: as above

With “PTPMEG, full length clone (amino-terminal myc-tag, c-terminal HA tag) (from UniProt P29074 1-926) (enzyme)” the binding [1] was “binds” and the binding [2] was “binds”.
